# Experimental data reported in publication PMC7372117.
# No constants are given. Whether binding was seen depends on the method and setting. In cells and extracts the contact can be indirect. Some binding calls cover weakened binding; strength is not graded here.
# T1: Pds5B (human (endogenous in HeLa)) (UniProt Q9NTI5)
# T1 sequence: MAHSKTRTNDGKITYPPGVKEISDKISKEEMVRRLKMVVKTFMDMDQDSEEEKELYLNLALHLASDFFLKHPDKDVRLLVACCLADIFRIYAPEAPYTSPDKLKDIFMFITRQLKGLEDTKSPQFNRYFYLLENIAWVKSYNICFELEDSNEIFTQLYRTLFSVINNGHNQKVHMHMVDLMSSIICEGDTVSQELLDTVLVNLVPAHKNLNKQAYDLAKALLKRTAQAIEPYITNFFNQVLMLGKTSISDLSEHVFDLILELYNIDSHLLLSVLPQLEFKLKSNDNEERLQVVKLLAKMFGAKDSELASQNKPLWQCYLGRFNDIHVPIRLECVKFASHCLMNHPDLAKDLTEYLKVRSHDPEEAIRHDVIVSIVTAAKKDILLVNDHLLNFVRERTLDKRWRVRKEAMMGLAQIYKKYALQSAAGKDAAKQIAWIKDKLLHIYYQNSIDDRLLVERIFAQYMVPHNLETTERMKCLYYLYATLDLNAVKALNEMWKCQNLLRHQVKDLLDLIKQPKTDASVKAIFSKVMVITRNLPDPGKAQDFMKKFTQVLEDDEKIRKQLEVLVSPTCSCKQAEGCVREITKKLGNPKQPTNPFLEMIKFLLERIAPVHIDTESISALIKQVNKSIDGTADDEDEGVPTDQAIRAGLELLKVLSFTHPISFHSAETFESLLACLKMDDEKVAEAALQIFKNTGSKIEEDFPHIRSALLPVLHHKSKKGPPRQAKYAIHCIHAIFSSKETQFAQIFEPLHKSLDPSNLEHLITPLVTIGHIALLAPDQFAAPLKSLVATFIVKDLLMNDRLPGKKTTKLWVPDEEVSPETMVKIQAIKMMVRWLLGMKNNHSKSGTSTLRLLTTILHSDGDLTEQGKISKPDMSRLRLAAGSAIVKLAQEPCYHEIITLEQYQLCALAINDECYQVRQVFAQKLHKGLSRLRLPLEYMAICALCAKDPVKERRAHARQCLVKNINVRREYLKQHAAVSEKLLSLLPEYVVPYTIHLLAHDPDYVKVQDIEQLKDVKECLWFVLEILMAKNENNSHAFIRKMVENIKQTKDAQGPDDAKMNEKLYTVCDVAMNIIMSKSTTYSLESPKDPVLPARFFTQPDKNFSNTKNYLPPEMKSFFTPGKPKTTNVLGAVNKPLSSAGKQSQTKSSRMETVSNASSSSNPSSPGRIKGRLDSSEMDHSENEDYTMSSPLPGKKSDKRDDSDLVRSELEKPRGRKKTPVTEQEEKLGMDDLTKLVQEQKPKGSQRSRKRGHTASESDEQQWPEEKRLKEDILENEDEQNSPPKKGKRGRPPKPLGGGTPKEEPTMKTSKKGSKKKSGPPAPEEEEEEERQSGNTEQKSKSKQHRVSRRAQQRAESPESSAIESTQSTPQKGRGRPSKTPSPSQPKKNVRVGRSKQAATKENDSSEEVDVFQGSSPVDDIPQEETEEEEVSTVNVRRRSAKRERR
# B1: Scc1 (protein, UniProt O60216 1-631)
# chain: MFYAHFVLSKRGPLAKIWLAAHWDKKLTKAHVFECNLESSVESIISPKVKMALRTSGHLLLGVVRIYHRKAKYLLADCNEAFIKIKMAFRPGVVDLPEENREAAYNAITLPEEFHDFDQPLPDLDDIDVAQQFSLNQSRVEEITMREEVGNISILQENDFGDFGMDDREIMREGSAFEDDDMLVSTTTSNLLLESEQSTSNLNEKINHLEYEDQYKDDNFGEGNDGGILDDKLISNNDGGIFDDPPALSEAGVMLPEQPAHDDMDEDDNVSMGGPDSPDSVDPVEPMPTMTDQTTLVPNEEEAFALEPIDITVKETKAKRKRKLIVDSVKELDSKTIRAQLSDYSDIVTTLDLAPPTKKLMMWKETGGVEKLFSLPAQPLWNNRLLKLFTRCLTPLVPEDLRKRRKGGEADNLDEFLKEFENPEVPREDQQQQHQQRDVIDEPIIEEPSRLQESVMEASRTNIDESAMPPPPPQGVKRKAGQIDPEPVMPPQQVEQMEIPPVELPPEEPPNICQLIPELELLPEKEKEKEKEKEDDEEEEDEDASGGDQDQEERRWNKRTQQMLHGLQRALAKTGAESISLLELCRNTNRKQAAAKFYSFLVLKKQQAIELTQEEPYSDIIATPGPRFHII
# Target: T1, Pds5B (human (endogenous in HeLa))
# Assay: co-IP; Pds5A or Pds5B immunoprecipitated (1 ug antibody on protein A sepharose, overnight, 4°C) from chromatin-associated protein fractions (micrococcal nuclease) of nocodazole-arrested HeLa cells; western blot against Scc1; asynchronous cells and soluble fractions run in parallel
binder,measurement,value
B1,binding,binds
